Experimental data published in PMC12314576, “The Actin‐Binding Prolyl‐Isomerase Par17 Sustains Its Substrate Selectivity by Interdomain Allostery” (Proteins, 2025).
These are yes or no findings as the source states them, for the method shown. Some results given as binding are weak or reduced against the parent protein; the word gives no strength.

Tests used:
Test in all cases: peptide or protein array; 12-mers of β-actin (aa 1–375) shifted by 2 residues, SPOT-synthesised on cellulose membranes; blocked with 5% BSA in PBS; incubated overnight with Atto594-labeled Par14 or Par17; fluorescence imaging; runs of three or more spots classified as possible binding sites; both purified
[1] = target: β-actin peptides Leu299–Glu316 (spots J8–M8) (UniProt P60709)
[2] = target: β-actin peptides Glu167–Gly182 (spots D5–F5) (UniProt P60709)
[3] = target: β-actin peptides Ile345–Tyr362 (spots M9–P9) (UniProt P60709)
[4] = target: β-actin peptides Tyr53–Pro70 (spots G2–J2) (UniProt P60709)
[5] = target: β-actin peptides Glu83–Glu100 (spots B3–E3) (UniProt P60709)

Measured: binding

Atto594-labeled Par17 (from UniProt Q9Y237-2 1-156) (enzyme)
binds: all assays above
